Literature values, collected in patent publication US20150297661A1, “ANALGESIC COMPOSITIONS AND METHODS OF USE” (priority 2014, published 2015).

Conditions: depending on the site of administration

SMILES: CCN(CC)CC(=O)Nc1c(C)cccc1C [Lidocaine]
- onset of anesthesia: within a few minutes
